IC50 and Selectivity index data for one molecule are collected here from PMC8667918, “Synthesis and biological evaluation of halogenated phenoxychalcones and their corresponding pyrazolines as cytotoxic agents in human breast cancer” (Journal of Enzyme Inhibition and Medicinal Chemistry, 2021).

Data set [1] has as its system MCF-7 breast cancer cell line. In words: MTT assay, cytotoxicity against breast cancer cell line MCF-7. The method, then: (§1) Human breast cancer cell line MCF-7 and normal breast cell line MCF-10a were obtained from American type culture collection, MCF-7 cells were cultured using Dulbecco’s Modified Eagle Medium DMEM (Invitrogen/Life Technologies) supplemented with 10% FBS (Hyclone), 10 µg/ml of insulin (Sigma), and 1% penicillin-streptomycin. MCF-10a cell line was cultured using DMEM medium supplemented with 10% FBS, 1% sodium pyruvate, 1% MEM NEAA, 20 ng/ml human epidermal growth factor (HEGF), 10 μg/ml insulin and 0.05 mM hydrocortisone. The cells were incubated at 37 °C in a humidified atmosphere of 5% CO2.
(§2) The anticancer effect of phenoxychalcones and N-acetylpyrazolines on the viability of both tumour and normal cells was evaluated using МТТ assay as a rapid colorimetric assay. It is based on the ability of mitochondrial dehydrogenases of viable cells to reduce yellow tetrazolium salt MTT to blue formazan in quantities proportional to the number of living cells. […] The viability of cells was estimated by measuring the absorbance at 570 nm using a Bioline ELIZA plate reader. The cell viability percentage was calculated based on the absorbance ratio between cell culture treated with the compounds and the untreated control multiplied by 100. Selectivity index (SI) was calculated as the ratio of cytotoxicity (IC50) on normal cells (MCF-10a) to cancer cells (MCF-7).
(Tetrazolium dyes change colour on reduction, which living cells bring about.)

Another data set in a line: in vitro. The conditions noted are these: human. The method, then: as §1, §2

On to `CN[C@@H]1C[C@H]2O[C@@](C)([C@@H]1OC)n1c3ccccc3c3c4c(c5c6ccccc6n2c5c31)C(=O)NC4` [Staurosporine, reference compound], for which the IC50 in data set [1] (Homo sapiens, MCF7, 48 h, read-out: In vitro cytotoxicity IC50 MCF-7) turned out to be 5.9 ± 0.14 µM; in “in vitro”, 15.3 ± 0.51 µM. The Selectivity index in data set [1] (ratio of IC50 on normal cells (MCF-10a) to cancer cells (MCF-7)) was 2.60.

As usually defined, the IC50 is the point on the concentration scale where inhibition reaches its midpoint.
